Measurements reported in paper PMC7501814.
No constants are given. Whether binding was seen depends on the method and setting. For some of these results: In cells and extracts the contact can be indirect. Some binding calls cover weakened binding; strength is not graded here. Tags and fused reporters may be left off the sequences shown.

Key:
[1] = molecular target: T1, PIRIN2 (PRN2), full-length, yeast two-hybrid bait (pB27-PRN2) (Arabidopsis thaliana) (UniProt Q9ZW82); test: two-hybrid; large-scale yeast two-hybrid screen by Hybrigenics S.A. with full-length PRN2 as bait
T1 sequence: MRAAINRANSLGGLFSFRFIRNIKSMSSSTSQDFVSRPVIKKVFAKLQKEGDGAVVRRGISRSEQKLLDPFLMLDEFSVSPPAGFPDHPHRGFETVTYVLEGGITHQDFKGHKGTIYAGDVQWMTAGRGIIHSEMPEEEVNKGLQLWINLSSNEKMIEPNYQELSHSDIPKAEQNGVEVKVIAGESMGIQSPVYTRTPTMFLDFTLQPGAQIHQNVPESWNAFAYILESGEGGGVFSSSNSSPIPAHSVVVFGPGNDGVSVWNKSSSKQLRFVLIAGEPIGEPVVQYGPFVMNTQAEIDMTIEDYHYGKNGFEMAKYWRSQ

[2] = molecular target: T1, PIRIN2 (PRN2), full-length, yeast two-hybrid bait (pB27-PRN2) (Arabidopsis thaliana); test: two-hybrid; targeted yeast two-hybrid: PRN2 bait vector (pB27) and HUB2 prey vector (pP6); growth on -Leu/-Trp/-His medium and beta-galactosidase reporter activity
[3] = molecular target: T2, myc-tagged PRN2 (Arabidopsis thaliana) (UniProt Q9ZW82); test: co-IP; transient co-expression overnight in Arabidopsis root cell protoplasts; myc-tagged protein immunoprecipitated from total protein extracts with 9E10C anti-myc antibody and protein G-Sepharose, 2 h at 4 °C; washes in 1x PBS pH 7.4, 5% glycerol, 0.1% Igepal CA-630; HA-tagged protein detected by anti-HA western blot
T2 sequence: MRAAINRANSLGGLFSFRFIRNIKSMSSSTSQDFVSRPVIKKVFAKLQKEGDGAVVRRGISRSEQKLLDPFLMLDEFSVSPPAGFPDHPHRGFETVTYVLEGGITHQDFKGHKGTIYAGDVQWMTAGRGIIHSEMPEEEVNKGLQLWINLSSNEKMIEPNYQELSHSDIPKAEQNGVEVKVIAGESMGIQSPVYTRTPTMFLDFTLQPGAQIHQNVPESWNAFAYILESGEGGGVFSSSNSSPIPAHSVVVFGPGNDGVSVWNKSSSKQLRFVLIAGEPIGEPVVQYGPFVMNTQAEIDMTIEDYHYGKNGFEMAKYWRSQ

[4] = molecular target: T3, myc-tagged HUB2 (Arabidopsis thaliana) (UniProt Q9C895); test: as above
T3 sequence: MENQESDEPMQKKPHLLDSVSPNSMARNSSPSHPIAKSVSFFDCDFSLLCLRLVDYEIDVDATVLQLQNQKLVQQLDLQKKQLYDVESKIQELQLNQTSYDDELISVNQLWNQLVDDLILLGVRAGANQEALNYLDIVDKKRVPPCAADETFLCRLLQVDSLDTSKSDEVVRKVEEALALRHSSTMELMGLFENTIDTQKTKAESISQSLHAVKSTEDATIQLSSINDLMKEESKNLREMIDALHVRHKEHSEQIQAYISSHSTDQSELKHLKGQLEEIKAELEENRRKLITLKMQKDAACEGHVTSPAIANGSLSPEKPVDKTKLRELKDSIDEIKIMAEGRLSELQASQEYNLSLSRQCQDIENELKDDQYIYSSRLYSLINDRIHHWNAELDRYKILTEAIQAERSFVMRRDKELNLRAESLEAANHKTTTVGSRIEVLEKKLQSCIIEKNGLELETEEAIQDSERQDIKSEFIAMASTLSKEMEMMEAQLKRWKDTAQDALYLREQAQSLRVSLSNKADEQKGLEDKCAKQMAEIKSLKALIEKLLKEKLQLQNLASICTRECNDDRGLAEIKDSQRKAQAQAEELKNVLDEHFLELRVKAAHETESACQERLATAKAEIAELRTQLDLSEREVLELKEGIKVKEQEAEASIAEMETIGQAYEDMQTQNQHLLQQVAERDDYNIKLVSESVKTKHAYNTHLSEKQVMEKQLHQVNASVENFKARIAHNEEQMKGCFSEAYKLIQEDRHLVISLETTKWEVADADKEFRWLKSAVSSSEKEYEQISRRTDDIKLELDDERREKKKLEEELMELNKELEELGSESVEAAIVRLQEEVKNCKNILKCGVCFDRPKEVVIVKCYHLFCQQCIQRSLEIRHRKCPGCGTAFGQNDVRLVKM

B1: HISTONE MONOUBIQUITINATION2 (HUB2), yeast two-hybrid prey (pP6-HUB2) (protein, UniProt Q9C895 1-900)
chain: MENQESDEPMQKKPHLLDSVSPNSMARNSSPSHPIAKSVSFFDCDFSLLCLRLVDYEIDVDATVLQLQNQKLVQQLDLQKKQLYDVESKIQELQLNQTSYDDELISVNQLWNQLVDDLILLGVRAGANQEALNYLDIVDKKRVPPCAADETFLCRLLQVDSLDTSKSDEVVRKVEEALALRHSSTMELMGLFENTIDTQKTKAESISQSLHAVKSTEDATIQLSSINDLMKEESKNLREMIDALHVRHKEHSEQIQAYISSHSTDQSELKHLKGQLEEIKAELEENRRKLITLKMQKDAACEGHVTSPAIANGSLSPEKPVDKTKLRELKDSIDEIKIMAEGRLSELQASQEYNLSLSRQCQDIENELKDDQYIYSSRLYSLINDRIHHWNAELDRYKILTEAIQAERSFVMRRDKELNLRAESLEAANHKTTTVGSRIEVLEKKLQSCIIEKNGLELETEEAIQDSERQDIKSEFIAMASTLSKEMEMMEAQLKRWKDTAQDALYLREQAQSLRVSLSNKADEQKGLEDKCAKQMAEIKSLKALIEKLLKEKLQLQNLASICTRECNDDRGLAEIKDSQRKAQAQAEELKNVLDEHFLELRVKAAHETESACQERLATAKAEIAELRTQLDLSEREVLELKEGIKVKEQEAEASIAEMETIGQAYEDMQTQNQHLLQQVAERDDYNIKLVSESVKTKHAYNTHLSEKQVMEKQLHQVNASVENFKARIAHNEEQMKGCFSEAYKLIQEDRHLVISLETTKWEVADADKEFRWLKSAVSSSEKEYEQISRRTDDIKLELDDERREKKKLEEELMELNKELEELGSESVEAAIVRLQEEVKNCKNILKCGVCFDRPKEVVIVKCYHLFCQQCIQRSLEIRHRKCPGCGTAFGQNDVRLVKM
For B1, the binding [1] was “binds” and the binding [2] was “binds”.

B2: HA-tagged HUB2 (protein, UniProt Q9C895 1-900)
chain: MENQESDEPMQKKPHLLDSVSPNSMARNSSPSHPIAKSVSFFDCDFSLLCLRLVDYEIDVDATVLQLQNQKLVQQLDLQKKQLYDVESKIQELQLNQTSYDDELISVNQLWNQLVDDLILLGVRAGANQEALNYLDIVDKKRVPPCAADETFLCRLLQVDSLDTSKSDEVVRKVEEALALRHSSTMELMGLFENTIDTQKTKAESISQSLHAVKSTEDATIQLSSINDLMKEESKNLREMIDALHVRHKEHSEQIQAYISSHSTDQSELKHLKGQLEEIKAELEENRRKLITLKMQKDAACEGHVTSPAIANGSLSPEKPVDKTKLRELKDSIDEIKIMAEGRLSELQASQEYNLSLSRQCQDIENELKDDQYIYSSRLYSLINDRIHHWNAELDRYKILTEAIQAERSFVMRRDKELNLRAESLEAANHKTTTVGSRIEVLEKKLQSCIIEKNGLELETEEAIQDSERQDIKSEFIAMASTLSKEMEMMEAQLKRWKDTAQDALYLREQAQSLRVSLSNKADEQKGLEDKCAKQMAEIKSLKALIEKLLKEKLQLQNLASICTRECNDDRGLAEIKDSQRKAQAQAEELKNVLDEHFLELRVKAAHETESACQERLATAKAEIAELRTQLDLSEREVLELKEGIKVKEQEAEASIAEMETIGQAYEDMQTQNQHLLQQVAERDDYNIKLVSESVKTKHAYNTHLSEKQVMEKQLHQVNASVENFKARIAHNEEQMKGCFSEAYKLIQEDRHLVISLETTKWEVADADKEFRWLKSAVSSSEKEYEQISRRTDDIKLELDDERREKKKLEEELMELNKELEELGSESVEAAIVRLQEEVKNCKNILKCGVCFDRPKEVVIVKCYHLFCQQCIQRSLEIRHRKCPGCGTAFGQNDVRLVKM
For B2, the binding [3] was “binds”.

B3: HA-tagged PRN2 (protein, UniProt Q9ZW82 1-321)
chain: MRAAINRANSLGGLFSFRFIRNIKSMSSSTSQDFVSRPVIKKVFAKLQKEGDGAVVRRGISRSEQKLLDPFLMLDEFSVSPPAGFPDHPHRGFETVTYVLEGGITHQDFKGHKGTIYAGDVQWMTAGRGIIHSEMPEEEVNKGLQLWINLSSNEKMIEPNYQELSHSDIPKAEQNGVEVKVIAGESMGIQSPVYTRTPTMFLDFTLQPGAQIHQNVPESWNAFAYILESGEGGGVFSSSNSSPIPAHSVVVFGPGNDGVSVWNKSSSKQLRFVLIAGEPIGEPVVQYGPFVMNTQAEIDMTIEDYHYGKNGFEMAKYWRSQ
In the case of B3, the binding [4] is reported as “binds”.
